{"source": "PubChem BioAssay AID652259 (Drosophila RNAi Screening Center, 2013)", "purpose": "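Knock-downs that push a Wingless-driven reporter up or down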 (primary screen)", "cells": "Drosophila clone 8 imaginal disc epithelial cells", "reagent": "long dsRNA against Drosophila genes", "challenge": "pathway stimulated by co-transfected Wingless expression plasmid", "measurement": "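Firefly luciferase from a tcf-site Wingless reporter, measured alongside co-transfected Renilla luciferase that tracks transfection; pathway stimulated by a Wingless plasmid; the firefly-to-Renilla ratio is not deposited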", "scale": "firefly reporter light: higher = more Wg reporter light, before normalisation; Renilla control light: higher = more transfected or surviving cells", "hit rule": "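Strong candidates differ from their plate mean by at least two out of four per-plate statistical tests; weak candidates meet just one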", "meaning of the calls": "active = candidate regulator (raises or lowers reporter); inactive = not a candidate", "note": "The screen tested about 22,000 reagents; shown is a random part of those with a known target gene and a result. Over the whole deposit, 233 (1.1%) were called active. 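Light values are raw, unnormalised plate reads; the ratio scores behind the reporter calls were not deposited.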 Entries without a mark were called inactive. Reagents against one gene are numbered here. Not stated in the record: the amount of reagent, the time to read-out, the dose of the treatment."}
{"predicted target":"Gpo1 (Glycerophosphate oxidase 1)","reagent":1,"firefly reporter light, replicate 1":16745,"Renilla control light, replicate 1":4870}
{"predicted target":"Npc2h (Niemann-Pick type C-2h)","reagent":1,"firefly reporter light, replicate 1":9588,"Renilla control light, replicate 1":3369}
{"predicted target":"CG4042","reagent":1,"firefly reporter light, replicate 1":16232,"Renilla control light, replicate 1":4616}
{"predicted target":"Mvb12 (Multivesicular body subunit 12)","reagent":1,"firefly reporter light, replicate 1":21545,"Renilla control light, replicate 1":8880}
{"predicted target":"CG17816","reagent":1,"firefly reporter light, replicate 1":11340,"Renilla control light, replicate 1":4016}
{"predicted target":"CG4951","reagent":1,"firefly reporter light, replicate 1":2064,"firefly reporter light, replicate 2":4870,"Renilla control light, replicate 1":896,"Renilla control light, replicate 2":1143}
{"predicted target":"CG11902","reagent":1,"firefly reporter light, replicate 1":26388,"firefly reporter light, replicate 2":6.70e5,"Renilla control light, replicate 1":21488,"Renilla control light, replicate 2":3.42e5}
{"predicted target":"RhoGAP15B (Rho GTPase activating protein at 15B)","reagent":1,"firefly reporter light, replicate 1":2132,"firefly reporter light, replicate 2":6755,"Renilla control light, replicate 1":963,"Renilla control light, replicate 2":2125}
{"predicted target":"RhoGAP15B (Rho GTPase activating protein at 15B)","reagent":2,"firefly reporter light, replicate 1":14953,"Renilla control light, replicate 1":8055}
{"predicted target":"CR31054 (pseudo)","reagent":1,"firefly reporter light, replicate 1":8.53e5,"firefly reporter light, replicate 2":9.84e5,"Renilla control light, replicate 1":3.99e5,"Renilla control light, replicate 2":4.99e5}
{"predicted target":"CkIIbeta2 (Casein kinase II beta2 subunit)","reagent":1,"firefly reporter light, replicate 1":5386,"Renilla control light, replicate 1":2099}
{"predicted target":"CG13073","reagent":1,"firefly reporter light, replicate 1":3912,"Renilla control light, replicate 1":2341}
{"predicted target":"fliI (flightless I)","reagent":1,"firefly reporter light, replicate 1":3117,"Renilla control light, replicate 1":1235}
{"predicted target":"scw (screw)","reagent":1,"firefly reporter light, replicate 1":14997,"Renilla control light, replicate 1":7499}
{"predicted target":"scw (screw)","reagent":2,"firefly reporter light, replicate 1":20960,"Renilla control light, replicate 1":12764}
{"predicted target":"gl (glass)","reagent":1,"firefly reporter light, replicate 1":14208,"Renilla control light, replicate 1":3757}
{"predicted target":"CG3894","reagent":1,"firefly reporter light, replicate 1":18280,"Renilla control light, replicate 1":9687}
{"predicted target":"CG3894","reagent":2,"firefly reporter light, replicate 1":19568,"Renilla control light, replicate 1":10050}
{"predicted target":"CG3894","reagent":3,"firefly reporter light, replicate 1":6349,"firefly reporter light, replicate 2":13744,"Renilla control light, replicate 1":1376,"Renilla control light, replicate 2":3986}
{"predicted target":"Nnp-1","reagent":1,"firefly reporter light, replicate 1":4385,"firefly reporter light, replicate 2":8949,"Renilla control light, replicate 1":1299,"Renilla control light, replicate 2":4765}
{"predicted target":"PIG-Wb (Phosphatidylinositol glycan anchor biosynthesis class W b)","reagent":1,"firefly reporter light, replicate 1":6676,"Renilla control light, replicate 1":2614}
{"predicted target":"Agpat1 (1-Acylglycerol-3-phosphate O-acyltransferase 1)","reagent":1,"firefly reporter light, replicate 1":15852,"Renilla control light, replicate 1":6998}
{"predicted target":"Agpat1 (1-Acylglycerol-3-phosphate O-acyltransferase 1)","reagent":2,"firefly reporter light, replicate 1":19803,"Renilla control light, replicate 1":10602}
{"predicted target":"RluA-1 (RluA pseudouridine synthase 1)","reagent":1,"firefly reporter light, replicate 1":2034,"firefly reporter light, replicate 2":4800,"Renilla control light, replicate 1":661,"Renilla control light, replicate 2":3068}
{"predicted target":"RluA-1 (RluA pseudouridine synthase 1)","reagent":2,"firefly reporter light, replicate 1":2551,"firefly reporter light, replicate 2":6693,"Renilla control light, replicate 1":613,"Renilla control light, replicate 2":2861}

2 entries from above, ordered by “Renilla control light, replicate 1”, highest first:
{"predicted target":"CG11902","reagent":1,"firefly reporter light, replicate 1":26388,"firefly reporter light, replicate 2":6.70e5,"Renilla control light, replicate 1":21488,"Renilla control light, replicate 2":3.42e5}
{"predicted target":"CG4951","reagent":1,"firefly reporter light, replicate 1":2064,"firefly reporter light, replicate 2":4870,"Renilla control light, replicate 1":896,"Renilla control light, replicate 2":1143}
